The assay deals with T1, NFIL3-GFP (Nuclear Factor, IL-3 Regulated) (human) (UniProt Q16649).
T1 sequence: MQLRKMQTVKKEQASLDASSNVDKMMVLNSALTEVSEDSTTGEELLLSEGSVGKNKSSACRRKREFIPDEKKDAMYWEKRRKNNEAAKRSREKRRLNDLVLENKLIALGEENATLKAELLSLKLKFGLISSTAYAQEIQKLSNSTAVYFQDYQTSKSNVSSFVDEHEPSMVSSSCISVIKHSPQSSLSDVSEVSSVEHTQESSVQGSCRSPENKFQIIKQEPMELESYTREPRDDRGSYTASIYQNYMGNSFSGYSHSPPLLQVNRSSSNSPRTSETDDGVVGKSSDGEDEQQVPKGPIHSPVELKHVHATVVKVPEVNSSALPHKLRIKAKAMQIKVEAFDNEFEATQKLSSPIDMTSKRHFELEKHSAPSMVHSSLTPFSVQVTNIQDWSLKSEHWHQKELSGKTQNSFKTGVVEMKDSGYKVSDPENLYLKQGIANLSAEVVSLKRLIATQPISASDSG
Kind of assay: co-IP; SKOV3 cells transiently transfected, lysed in IP lysis buffer; mouse GFP antibody or mouse isotype control IgG overnight at 4 °C, protein A/G PLUS agarose beads, five washes, Western blot.

Results are given in words; binding and its absence hold for the method and conditions named. Binding seen in cells or lysates may run through a third protein. Some results given as binding are weak or reduced against the parent protein; the word gives no strength. Sequences can lack the tags named with a protein.

“p53 (pmCherry-C1-P53) (from UniProt P04637 1-393)”: the binding result is reported as “binds”.

These data come from PMC10861811.
